Measured values published in patent US20180326084A1.

Assays:
[1] = molecular target: human AXL with a cynomolgus monkey extracellular domain (ECD) (cynomolgus monkey (Macaca fascicularis); human); assay: flow cytometry, HEK293 cells transfected with human AXL carrying the cynomolgus ECD
[2] = molecular target: human AXL with a cynomolgus monkey extracellular domain (ECD) (cynomolgus monkey (Macaca fascicularis); human); assay: flow cytometry, HEK293T cells with human AXL carrying cynomolgus ECD
[3] = molecular target: human AXL with a mouse ECD (p33-HAMm-AXL) (human-mouse chimera (mouse ECD, human remainder)); assay: flow cytometry, HEK293 cells transfected with human AXL carrying the mouse ECD
[4] = molecular target: human AXL with a mouse ECD (p33-HAMm-AXL) (human-mouse chimera (mouse ECD, human remainder)); assay: flow cytometry, HEK293T cells with human AXL carrying mouse ECD
[5] = molecular target: human AXL with a mouse ECD (p33-HAMm-AXL) (human-mouse chimera (mouse ECD, human remainder)); assay: flow cytometry, 1 µg/mL antibody, transfected HEK293F cells

| Binder | binding [1] | binding [2] | binding [3] | binding [4] | binding [5] |
| --- | --- | --- | --- | --- | --- |
| IgG1-AXL-148 (antibody, V domains shown) VH: EVQLLESGGGLVQPGGSLRLSCAASGFTFSSYAMTWVRQAPGKGLEWVSAISISGGSTFYADSVKGRFTISRDNSKNTLYLQMNSLRAEDTAVYYCRGYSGYVYDAFDFWGQGTMVTVSS VL: DIQMTQSPSSLSASVGDRVTITCRASQGISNWLAWYQQKPEKAPKSLIYAASSLQSGVPSRFSGSGSGTDFTLTISSLQPEDFATYYCQQYNSYPLTFGGGTKVEIK | binds | binds | – | – | – |
| IgG1-AXL-183 (antibody, V domains shown) VH: QVQLQQWGAGLLKPSETLSLTCAVYGGSFSGYYWSWIRQPPGKGLEWIGEINQSGSTNYNPSLKSRVTISVDTSKNQFSLKLSSVTAADTSVYYCASGNWDHFFDYWGQGTLVTVSS VL: DIQMTQSPSSVSASVGDRVTITCRASQGISSWLAWYQHKPGKAPKLLIYATSSLQSGVTSRFSGSGSGTDFTLTISSLQPEDFATYYCQQAKSFPWTFGQGTKVEIK | binds | binds | binds | binds | binds |

Further lines, results first:

| binding [1] | binding [2] | binding [3] | binding [4] | binding [5] | Binder |
| --- | --- | --- | --- | --- | --- |
| binds | binds | – | – | – | IgG1-AXL-733 (antibody, V domains shown) VH: QVQLVESGGGVVQPGRSLRLSCAASGFSFSTYAMHWVRQAPGKGLEWVAVISYDGDNKYSADSVKGRFTISRDNSKNTLYLQMNSLRAEDTAVYYCARGRKLGIDAFDIWGQGTMVTVSS VL: AIQLTQSPSSLSASVGDRVTITCRASQGISSALAWYQQKPGKAPKLLIYDASSLESGVPSRFSGSGSGTDFTLTISGLQPEDFATYYCQQFNSYPFTFGPGTKVDIK |
| binds | binds | – | binds | – | IgG1-AXL-183-N52Q (antibody, V domains shown) VH: QVQLQQWGAGLLKPSETLSLTCAVYGGSFSGYYWSWIRQPPGKGLEWIGEIQQSGSTNYNPSLKSRVTISVDTSKNQFSLKLSSVTAADTSVYYCASGNWDHFFDYWGQGTLVTVSS VL: DIQMTQSPSSVSASVGDRVTITCRASQGISSWLAWYQHKPGKAPKLLIYATSSLQSGVTSRFSGSGSGTDFTLTISSLQPEDFATYYCQQAKSFPWTFGQGTKVEIK |

No constants are given. Whether binding was seen depends on the method and setting. A result given as binding can be weak or reduced; the word gives no strength.
